Results taken from patent US20260176365A1 (SYNTHEKINE, published 2026).
Results are given in words; binding and its absence hold for the method and conditions named. Some entries that bind do so weakly or less than the wild type. Sequences can lack the tags named with a protein.

Protein sequences, listed by entry. Tags and fused reporters are not part of them. Lines headed by an entry give the natural chain unless they say otherwise; changes in a name come on top.
UniProt P40189: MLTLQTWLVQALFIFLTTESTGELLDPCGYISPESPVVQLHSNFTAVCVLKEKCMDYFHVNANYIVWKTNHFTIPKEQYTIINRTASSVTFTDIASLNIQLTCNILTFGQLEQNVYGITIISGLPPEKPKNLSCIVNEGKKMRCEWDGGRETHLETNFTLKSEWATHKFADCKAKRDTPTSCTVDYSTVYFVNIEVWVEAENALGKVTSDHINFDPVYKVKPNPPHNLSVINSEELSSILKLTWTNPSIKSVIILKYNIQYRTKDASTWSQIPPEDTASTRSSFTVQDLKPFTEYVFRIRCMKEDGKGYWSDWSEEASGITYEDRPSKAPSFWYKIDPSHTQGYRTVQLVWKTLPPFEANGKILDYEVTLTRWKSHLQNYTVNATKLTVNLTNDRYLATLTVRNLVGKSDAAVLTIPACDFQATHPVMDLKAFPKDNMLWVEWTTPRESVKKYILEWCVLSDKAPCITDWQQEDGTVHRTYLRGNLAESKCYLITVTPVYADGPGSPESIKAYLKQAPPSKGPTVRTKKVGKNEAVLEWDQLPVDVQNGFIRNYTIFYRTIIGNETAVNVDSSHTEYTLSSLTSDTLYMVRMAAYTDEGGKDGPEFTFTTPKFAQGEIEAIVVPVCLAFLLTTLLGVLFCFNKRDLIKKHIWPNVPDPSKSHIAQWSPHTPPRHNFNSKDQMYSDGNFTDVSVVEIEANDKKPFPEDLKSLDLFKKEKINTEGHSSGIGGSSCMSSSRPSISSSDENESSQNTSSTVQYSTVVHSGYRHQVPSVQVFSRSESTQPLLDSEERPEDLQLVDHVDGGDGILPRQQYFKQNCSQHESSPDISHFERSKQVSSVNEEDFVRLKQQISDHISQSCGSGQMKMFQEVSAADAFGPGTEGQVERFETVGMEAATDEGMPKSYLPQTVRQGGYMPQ

B1: DR595 Mono-Fc VHH (Fc fusion)
chain: QVQLQESGGGSVQAGGSLTLSCAASEYAYSTCNMGWYRQAPGKERELVSAFISDGSTYYADSVKGRFTITRDNAKNTVYLQMNSLKPEDTAIYYCSANCYRRLRNYWGQGTQVTVSS
notes: Mono-Fc format is not described further; also called anti-hGP130 Mono-Fc VHH; not shown: Fc part of the Mono-Fc format
B2: DR594 Mono-Fc VHH (Fc fusion)
chain: QVQLQESGGGSVQAGGSLRLSCVASASTYCTYDMHWYRQAPGKGREFVSAIDSDGTTRYADSVKGRFTISQGTAKNTVYLQMNSLQPEDTAMYYCKTVCVVGSRWSDYWGQGTQVTVSS
notes: as for B1
B3: DR591 Mono-Fc VHH (Fc fusion)
chain: QVQLQESGGGSVQAGGSLRLSCTASGAIASGYIDSRWCMAWFRQAPGKEREGVAAIWPGGGLTVYADSVKGRFTISRDHAKNTLYLQMNNLKPEDTAMYYCAAGSPRMCPSLEFGFDYWGQGTQVTVSS
notes: as for B1
B4: DR596 Mono-Fc VHH (Fc fusion)
chain: QVQLQESGGGLVQPGGSLRLSCTASGLTFDDSVMGWFRQAPGKGREAVSCISSSGANAFYADSVKGRFTISRDNAKNTLYLQMNSLKPEDTATYYCKRGHACAGYYPIPYDDYWGQGTQVTVSS
notes: as for B1
B5: DR593 Mono-Fc VHH (Fc fusion)
chain: QVQLQESGGGSVQAGGSLRLSCAASGYPYSNGYMGWFRQAPGKEREGVATIYTGDGRTYYADSVKGRFTISRDNAKNTVDLQMSSLKPEDTAMYYCAARAAPLYSSGSPLTRARYNVWGQGTQVTVSS
notes: as for B1
B6: DR592 Mono-Fc VHH (Fc fusion)
chain: QVQLQESGGGSVQAGGSLRLSCTAPGFTSNSCGMDWYRQAPGKEREFVSSISTDGTTGYADSVKGRFTISKDKAKDTVYLQMNSLKPEDTGMYSCKTKDGTIATMELCDFGYWGQGTQVTVSS
notes: as for B1

Molecular target: hGP130-his (Sino Biological, Catalog# 10974) (human) (UniProt P40189)
Assay: SPR, summary sentence on Tables 6 and 7

binding, binds:
B1
B2
B3
B4
B5
B6
